The record followed here is paper PMC5118791.

This experiment addresses recombinant Factor VIIa (rFVIIa). As to the kind of experiment: ELISA; plate coated with 100 nM rFVIIa in PBST pH 7.4; blocked with 2% milk; His-tagged proteins 0.1-1000 nM, 1 hour, 25 °C; detected with HRP anti-6xHis; both purified.

Results are given in words; binding and its absence hold for the method and conditions named. Binding calls can cover weak binding; strength is not graded here.

ALCDDPRVDRWYCQFVEG [E-76 peptide]: the binding entry is “binds”.
